Where two headings read alike, the source gives them in different places. Results are given in words; binding and its absence hold for the method and conditions named. For some assays here: In cells and extracts the contact can be indirect. Some binding calls cover weakened binding; strength is not graded here. For some assays here: Sequences can lack the tags named with a protein. One block for each molecule: values may come before it.
Tests used:
[1] = target: T1, GFP-dynamin 2 (full-length) (UniProt P39052); assay: co-IP; GFP-trap pulldown: extracts of cotransfected HEK293 cells in lysis buffer incubated with 10 µl GFP-trap agarose beads, Western blot
T1 sequence: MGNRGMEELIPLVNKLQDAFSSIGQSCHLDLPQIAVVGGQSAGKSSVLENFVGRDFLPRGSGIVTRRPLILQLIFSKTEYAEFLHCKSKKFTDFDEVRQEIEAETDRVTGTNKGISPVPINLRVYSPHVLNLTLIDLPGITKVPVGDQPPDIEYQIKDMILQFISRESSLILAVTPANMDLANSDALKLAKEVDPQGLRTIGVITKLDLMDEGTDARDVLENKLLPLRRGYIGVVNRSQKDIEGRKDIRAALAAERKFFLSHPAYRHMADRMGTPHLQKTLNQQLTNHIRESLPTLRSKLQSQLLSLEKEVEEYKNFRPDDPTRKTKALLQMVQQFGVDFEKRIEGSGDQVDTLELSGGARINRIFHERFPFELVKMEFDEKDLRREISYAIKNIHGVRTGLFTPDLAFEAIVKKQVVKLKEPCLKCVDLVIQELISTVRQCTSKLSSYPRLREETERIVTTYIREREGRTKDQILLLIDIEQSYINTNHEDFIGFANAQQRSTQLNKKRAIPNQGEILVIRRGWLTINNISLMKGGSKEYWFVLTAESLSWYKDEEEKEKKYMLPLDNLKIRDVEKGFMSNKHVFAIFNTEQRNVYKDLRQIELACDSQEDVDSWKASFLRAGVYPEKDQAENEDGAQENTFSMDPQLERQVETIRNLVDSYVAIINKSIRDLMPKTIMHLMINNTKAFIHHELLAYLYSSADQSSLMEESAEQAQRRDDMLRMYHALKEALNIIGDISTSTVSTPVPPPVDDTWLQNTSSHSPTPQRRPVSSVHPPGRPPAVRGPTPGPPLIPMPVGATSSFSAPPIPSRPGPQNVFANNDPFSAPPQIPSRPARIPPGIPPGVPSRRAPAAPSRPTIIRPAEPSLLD

The chains behind the UniProt entries cited, without tags or fusion partners. Where a name states a change or a piece, a line headed by the entry shows the natural chain unless it says otherwise. A line that says so, or that is headed by a name, gives the form on record, which may keep a tag or linker. Residues count along the entry.
UniProt Q9EP80: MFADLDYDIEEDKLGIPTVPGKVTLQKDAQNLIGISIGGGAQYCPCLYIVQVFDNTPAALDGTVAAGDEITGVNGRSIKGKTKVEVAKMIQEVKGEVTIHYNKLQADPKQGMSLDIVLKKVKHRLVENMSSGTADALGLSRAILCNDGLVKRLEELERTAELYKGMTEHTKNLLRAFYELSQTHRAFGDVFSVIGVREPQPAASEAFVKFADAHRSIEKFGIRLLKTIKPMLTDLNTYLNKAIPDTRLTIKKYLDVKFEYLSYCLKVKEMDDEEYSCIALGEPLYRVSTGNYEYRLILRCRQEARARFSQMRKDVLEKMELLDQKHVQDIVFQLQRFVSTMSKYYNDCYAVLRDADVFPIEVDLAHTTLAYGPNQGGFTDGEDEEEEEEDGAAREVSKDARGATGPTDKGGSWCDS
GST-DDAA-PICK1 (Q9EP80, form named): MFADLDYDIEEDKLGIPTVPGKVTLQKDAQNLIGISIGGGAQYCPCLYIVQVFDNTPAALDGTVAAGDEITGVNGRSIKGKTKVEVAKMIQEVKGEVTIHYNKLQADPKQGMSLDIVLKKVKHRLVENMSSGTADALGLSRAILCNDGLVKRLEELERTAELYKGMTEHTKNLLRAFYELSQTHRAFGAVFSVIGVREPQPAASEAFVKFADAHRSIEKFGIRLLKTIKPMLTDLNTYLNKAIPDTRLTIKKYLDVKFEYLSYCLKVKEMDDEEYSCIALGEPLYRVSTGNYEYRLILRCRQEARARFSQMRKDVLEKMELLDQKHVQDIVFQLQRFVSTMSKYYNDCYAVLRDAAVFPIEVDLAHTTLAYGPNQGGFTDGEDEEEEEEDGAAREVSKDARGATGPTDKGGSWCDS
UniProt P19491, residues 22-883: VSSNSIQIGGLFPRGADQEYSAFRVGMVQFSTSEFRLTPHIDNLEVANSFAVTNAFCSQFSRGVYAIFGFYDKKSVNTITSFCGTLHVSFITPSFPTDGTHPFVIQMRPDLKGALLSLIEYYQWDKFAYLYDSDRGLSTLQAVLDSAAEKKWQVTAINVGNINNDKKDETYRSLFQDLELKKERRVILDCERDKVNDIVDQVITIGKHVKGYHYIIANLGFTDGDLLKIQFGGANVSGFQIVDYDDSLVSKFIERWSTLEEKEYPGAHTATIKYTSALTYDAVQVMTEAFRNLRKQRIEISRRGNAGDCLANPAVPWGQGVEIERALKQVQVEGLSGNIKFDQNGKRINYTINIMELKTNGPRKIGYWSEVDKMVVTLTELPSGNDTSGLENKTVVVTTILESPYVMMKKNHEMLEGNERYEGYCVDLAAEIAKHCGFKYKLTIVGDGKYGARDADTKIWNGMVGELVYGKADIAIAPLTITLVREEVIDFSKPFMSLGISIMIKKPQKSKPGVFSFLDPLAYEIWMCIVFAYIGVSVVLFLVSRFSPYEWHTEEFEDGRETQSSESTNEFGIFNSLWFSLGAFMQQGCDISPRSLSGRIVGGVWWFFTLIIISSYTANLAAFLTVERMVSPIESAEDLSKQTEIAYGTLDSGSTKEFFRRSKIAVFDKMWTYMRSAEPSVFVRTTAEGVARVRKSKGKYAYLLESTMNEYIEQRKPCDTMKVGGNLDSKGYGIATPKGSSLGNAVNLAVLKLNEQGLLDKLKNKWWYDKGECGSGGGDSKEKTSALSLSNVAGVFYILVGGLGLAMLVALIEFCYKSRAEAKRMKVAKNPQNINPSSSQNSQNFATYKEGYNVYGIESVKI

[2] = target: T2, GFP-dynamin 2 GTPase effector domain (GED) (UniProt P39052); assay: as above
T2 sequence: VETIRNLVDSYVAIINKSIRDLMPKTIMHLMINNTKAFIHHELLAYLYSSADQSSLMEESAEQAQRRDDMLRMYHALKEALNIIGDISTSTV

[3] = target: T3, GFP-dynamin 2 pleckstrin homology domain (PH) (UniProt P39052); assay: as above
T3 sequence: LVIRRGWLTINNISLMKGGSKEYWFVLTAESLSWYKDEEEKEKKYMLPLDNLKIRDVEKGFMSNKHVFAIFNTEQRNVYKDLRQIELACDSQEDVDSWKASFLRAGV

[4] = target: PICK1 (endogenous, cortical neurons) (rat (endogenous in cortical neurons)) (UniProt Q9EP80); assay: co-IP; extracts of cortical neuronal cultures in lysis buffer (20 mM Tris-HCl pH 7.5, 150 mM NaCl, 0.5% Triton X-100), 5 µg anti-PICK1 or control IgG plus protein G-Sepharose, Western blot; basal, at time points after 3 min NMDA, with cyclosporin A or FK506, with PACSIN/syndapin knock-down
GST-DDAA-PICK1 = GST-DDAA-PICK1 (UniProt Q9EP80); assay: pull-down; GST, GST-PICK1 or mutants immobilised on glutathione agarose, incubated at 4°C with neuronal extracts in lysis buffer, Western blot; only the target purified
GST-PICK1 (wild type) [5] = target: GST-PICK1 (wild type) (UniProt Q9EP80); assay: as above
GST-D189A-PICK1 = GST-D189A-PICK1 (UniProt Q9EP80); assay: as above
GST-D356A-PICK1 = GST-D356A-PICK1 (UniProt Q9EP80); assay: as above
[6] = target: PICK1 (endogenous, cortical neurons) (rat (endogenous in cortical neurons)) (UniProt Q9EP80); assay: co-IP; extracts of cortical neuronal cultures in lysis buffer (20 mM Tris-HCl pH 7.5, 150 mM NaCl, 0.5% Triton X-100), 5 µg anti-PICK1 or control IgG plus protein G-Sepharose, Western blot; basal, at time points after 3 min NMDA, with cyclosporin A or FK506, with PACSIN/syndapin knock-down; remark: listed apart in the source
GFP-PICK1 (HEK293) = GFP-PICK1 (HEK293) (UniProt Q9EP80); assay: co-IP; GFP-trap pulldown: extracts of cotransfected HEK293 cells in lysis buffer incubated with 10 µl GFP-trap agarose beads, Western blot
GST-PICK1 (wild type) [7] = target: GST-PICK1 (wild type) (UniProt Q9EP80); assay: pull-down; GST or GST fusion immobilised on glutathione agarose, incubated at 4°C with purified protein in direct binding buffer (20 mM Tris-HCl, 150 mM NaCl, 5 mM imidazole, 2 mM MgCl2, 1% Triton X-100, 1 mM DTT), Western blot; both purified
HA-dynamin 2 = HA-dynamin 2 (UniProt P39052); assay: co-sedimentation; dynamin polymerization: 0.2 µM purified dynamin in sedimentation buffer at room temperature for 30 min with increasing amounts of His-tagged proteins, 15 min at 20,000 g at 4°C, pellet and supernatant by Western blot; both purified

Molecule: Flag-PICK1 (from UniProt Q9EP80 1-416)
binding [1]: binds | binding [2]: no binding | binding [3]: no binding

Molecule: GluA2 (endogenous, neurons) (from UniProt P19491 22-883) (receptor)
binding [4]: binds | binding (GST-DDAA-PICK1): binds | binding (GST-PICK1 (wild type) [5]): binds | binding (GST-D189A-PICK1): binds | binding (GST-D356A-PICK1): binds

B3: HA-dynamin 2 (protein, UniProt P39052 1-870)
chain: T1 sequence
binding (GFP-PICK1 (HEK293)): binds | binding (GST-PICK1 (wild type) [7]): binds | binding (HA-dynamin 2): binds

Next, values leading:

binding [6]: binds
B1: dynamin 1 (endogenous, cortical neurons) (protein, UniProt P21575 1-864)
chain: MGNRGMEDLIPLVNRLQDAFSAIGQNADLDLPQIAVVGGQSAGKSSVLENFVGRDFLPRGSGIVTRRPLVLQLVNSTTEYAEFLHCKGKKFTDFEEVRLEIEAETDRVTGTNKGISPVPINLRVYSPHVLNLTLVDLPGMTKVPVGDQPPDIEFQIRDMLMQFVTKENCLILAVSPANSDLANSDALKIAKEVDPQGQRTIGVITKLDLMDEGTDARDVLENKLLPLRRGYIGVVNRSQKDIDGKKDITAALAAERKFFLSHPSYRHLADRMGTPYLQKVLNQQLTNHIRDTLPGLRNKLQSQLLSIEKEVDEYKNFRPDDPARKTKALLQMVQQFAVDFEKRIEGSGDQIDTYELSGGARINRIFHERFPFELVKMEFDEKELRREISYAIKNIHGIRTGLFTPDLAFEATVKKQVQKLKEPSIKCVDMVVSELTSTIRKCSEKLQQYPRLREEMERIVTTHIREREGRTKEQVMLLIDIELAYMNTNHEDFIGFANAQQRSNQMNKKKTSGNQDEILVIRKGWLTINNIGIMKGGSKEYWFVLTAENLSWYKDDEEKEKKYMLSVDNLKLRDVEKGFMSSKHIFALFNTEQRNVYKDYRQLELACETQEEVDSWKASFLRAGVYPERVGDKEKASETEENGSDSFMHSMDPQLERQVETIRNLVDSYMAIVNKTVRDLMPKTIMHLMINNTKEFIFSELLANLYSCGDQNTLMEESAEQAQRRDEMLRMYHALKEALSIIGDINTTTVSTPMPPPVDDSWLQVQSVPAGRRSPTSSPTPQRRAPAVPPARPGSRGPAPGPPPAGSALGGAPPVPSRPGASPDPFGPPPQVPSRPNRAPPGVPSRSGQASPSRPESPRPPFDL

binding [6]: binds
B2: dynamin 3 (endogenous, cortical neurons) (protein, UniProt Q08877 1-869)
chain: MGNREMEELIPLVNRLQDAFSALGQSCLLELPQIAVVGGQSAGKSSVLENFVGRDFLPRGSGIVTRRPLVLQLVTSKAEYAEFLHCKGKKFTDFDEVRHEIEAETDRVTGMNKGISSVPINLRVYSPHVLNLTLIDLPGITKVPVGDQPPDIEYQIRDMIMQFITRENCLILAVTPANTDLANSDALKLAKEVDPQGLRTIGVITKLDLMDEGTDARDVLENKLLPLRRGYVGVVNRSQKDIDGKKDIKAAMLAERKFFLSHPAYRHIADRMGTPHLQKVLNQQLTNHIRDTLPNFRNKLQGQLLSIEHEVEAFKNFKPEDPTRKTKALLQMVQQFAVDFEKRIEGSGDQVDTLELSGGAKINRIFHERFPFEIVKMEFNEKELRREISYAIKNIHGIRTGLFTPDMAFEAIVKKQIVKLKGPSLKSVDLVMQELINTVKKCTKRLANFPRLCEETERIVANHIREREGKTKDQVLLLIDIQVSYINTNHEDFIGFANAQQRSSQVHKKSTIGNQGTNLPPSRQIVIRKGWLTVSNIGIMKGGSKGYWFVLTAESLSWYKDDEEKEKKYMLPLDNLKVRDVEKGFMSSKHVFALFNTEQRNVYKDYRSLELACDSQEDVDSWKASLLRAGVYPDKSFTENDENGQAENFSMDPQLERQVETIRNLVDSYMSIINKCIRDLIPKTIMHLMINNVKDFINSELLAQLYSSEDQNTLMEESVEQAQRRDEMLRMYQALKEALAIIGDINTVTVSTPAPPPVDDSWLQHSRRSPPPSPTTQRRLTLSAPLPRPASSRGPAPAIPSPGPHSGAPPVPFRPGPLPPFPNSSDSYGAPPQVPSRPTRAPPSVPSRRPPPSPTRPTIIRPLESSLLD

binding [6]: binds
B4: dynamin 2 (endogenous, cortical neurons) (protein, UniProt P39052 1-870)
chain: T1 sequence
